Source: article PMC7102982

Columns and labels:
[1] = biological target: Xenopus laevis FANCA, full length (Xenopus laevis); experiment: cryo-EM structure; single-particle cryo-EM of the purified FANCA-FANCG complex (0.8 mg/ml, 0.003% DDM); four classes: FANCA CTD dimer at 3.35 and 3.46 A, two FANCA-FANCG complexes at 4.59 and 4.84 A; both purified
[2] = biological target: Xenopus laevis FANCA, full length (Xenopus laevis); experiment: SEC; co-expressed, purified FANCA-FANCG complex on Superdex 200 10/300 GL; 25 mM Tris-HCl pH 8.0, 0.2 M NaCl, 2 mM DTT; both purified

B1: Xenopus laevis FANCG, full length (protein, UniProt A6YGN3 1-591)
chain: MAGLPATPQSLPLELSVLYNMLIFHIHSTSGFQDEHNKHIAETLSRVLRVCSPGVNVQSNEELWHQLVHGGYSSELAASLHRLAGLQGALWLAEEKLQEVHDLFSLLLHPEDSECSTNLRAEEKLLALLKAWRVSNEAEEKVLVVQPAQQLRDVLYTSAAFLQGILAMEASQHPYAINLFGEAAESLCSGRVLAQVYTCLGFCFQKMEKPQTALQYWKQALHLDFQCLAALYHSSSVYKEMGNVDAELEALNLLYKALLSPEQEAPSTKTCFLIGTEQIVNAPSLTSAVRAPSPWKVKYLIARRCLENKRGEEAVEHYLDLLALLQDESHQDLLPNPEPLIRIPEVFLETAAGLVLEKRYQDAMTVCEEVLGRTDDLIPGSLSVDSTQSKSNVMAEQLNLVLWASAAHLHQGLSHGLLGDQKESVTEYTKCINLLVKVQFIDTGCASPHCSRGSGDEMEISLIGLCSKEETVLCALKAAAFLGRSRQFLALGKHKESLLNMQLSLQASPAFPGAALTLVGHLIKLGRRTEAGSYLKRYQSERKTLADQWEAMKRNLPLYLDPHINHTFPAEDSLIKELEESAEEMQSEAVV
[1]
  binding: binds
[2]
  binding: binds

No constants are given. Whether binding was seen depends on the method and setting. Binding can be weak; no strength is given.
